{"source": "PubChem BioAssay AID1159543 (Gurdon Institute, 2015)", "assay": "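Find E2 knock-downs that increase or decrease homology-directed repair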", "system": "human U2OS osteosarcoma cells", "reagent": "siRNA pool against human genes, about 60 nM", "duration": "about 72 h", "conditions": "Break induced by I-SceI nuclease and donor plasmids transfected 8 h after siRNA", "measured": "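Flow cytometry of a traffic light reporter after an I-SceI break with donor: green cells as fraction of control siRNA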", "reading the numbers": "HR, cell-cycle adjusted (DJF) and HR, cell-cycle adjusted (WP): higher = more homologous recombination repair", "active means": "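Called if recombination adjusted for cell cycle (DJF) differs from control siRNA by over 40% either way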", "note": "Here is a random part of 44 reagents tested. Over the whole deposit, 26 (59%) were called active. 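DJF and WP are two cell-cycle corrections; all calls are decreases, no knock-down raised recombination by 40%.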 A number with no mark means an inactive call. Reagents against one gene are numbered here. Not all columns of the deposit are shown."}
{"Target gene":"UBE2V1 (GeneID 7335)","pool no.":1,"HR, cell-cycle adjusted (DJF)":"0.359 (active)","HR, cell-cycle adjusted (WP)":0.358}
{"Target gene":"UBE2E3 (GeneID 10477)","pool no.":1,"HR, cell-cycle adjusted (DJF)":"0.347 (active)","HR, cell-cycle adjusted (WP)":0.353}
{"Target gene":"UBE2R2 (GeneID 54926)","pool no.":1,"HR, cell-cycle adjusted (DJF)":"0.151 (active)","HR, cell-cycle adjusted (WP)":0.155}
{"Target gene":"LIG3 (GeneID 3980)","pool no.":1,"HR, cell-cycle adjusted (DJF)":0.752,"HR, cell-cycle adjusted (WP)":0.74}
{"Target gene":"LIG3 (GeneID 3980)","pool no.":2,"HR, cell-cycle adjusted (DJF)":0.901,"HR, cell-cycle adjusted (WP)":0.866}
{"Target gene":"UBE2D4 (GeneID 51619)","pool no.":1,"HR, cell-cycle adjusted (DJF)":0.605,"HR, cell-cycle adjusted (WP)":0.622}
{"Target gene":"UBE2Q1 (GeneID 55585)","pool no.":1,"HR, cell-cycle adjusted (DJF)":"0.504 (active)","HR, cell-cycle adjusted (WP)":0.503}
